The target in experiment [1] is T1, nuclear receptor coactivator 7 (NCOA7) (mouse (endogenous in adult mouse brain and kidney)) (UniProt Q6DFV7).
T1 sequence: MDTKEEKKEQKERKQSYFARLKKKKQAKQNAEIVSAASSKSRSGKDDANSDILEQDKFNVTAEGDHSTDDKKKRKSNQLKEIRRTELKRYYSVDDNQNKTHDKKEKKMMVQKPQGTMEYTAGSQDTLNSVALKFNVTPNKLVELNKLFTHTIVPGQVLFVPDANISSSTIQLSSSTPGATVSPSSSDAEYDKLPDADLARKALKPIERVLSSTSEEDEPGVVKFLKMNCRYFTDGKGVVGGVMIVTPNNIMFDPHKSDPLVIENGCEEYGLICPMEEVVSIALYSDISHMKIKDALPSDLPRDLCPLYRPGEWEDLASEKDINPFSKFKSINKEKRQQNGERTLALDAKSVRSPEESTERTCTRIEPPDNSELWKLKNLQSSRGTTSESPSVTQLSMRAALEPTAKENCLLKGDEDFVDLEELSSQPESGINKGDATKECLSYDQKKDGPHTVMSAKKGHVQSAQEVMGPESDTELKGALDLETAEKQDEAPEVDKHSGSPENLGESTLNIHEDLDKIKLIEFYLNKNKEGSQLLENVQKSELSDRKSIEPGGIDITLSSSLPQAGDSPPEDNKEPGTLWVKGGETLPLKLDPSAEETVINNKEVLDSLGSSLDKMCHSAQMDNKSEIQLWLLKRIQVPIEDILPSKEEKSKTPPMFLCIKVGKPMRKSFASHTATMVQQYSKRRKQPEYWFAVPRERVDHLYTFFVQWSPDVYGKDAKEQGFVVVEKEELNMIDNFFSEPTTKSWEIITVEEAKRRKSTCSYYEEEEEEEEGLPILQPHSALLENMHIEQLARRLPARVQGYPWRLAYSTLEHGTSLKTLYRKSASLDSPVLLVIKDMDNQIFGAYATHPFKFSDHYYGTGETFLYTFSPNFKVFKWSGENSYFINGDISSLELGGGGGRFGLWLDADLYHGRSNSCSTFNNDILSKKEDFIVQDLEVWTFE
The experiment in a line: co-IP; IP with anti-NCOA7 (crosslinked to Protein A/G Plus agarose, overnight 4 °C) from membrane, cytosolic and nuclear fractions of WT adult mouse whole brain; DEL (Ncoa7 deletion) brain as specificity control; Western blot for V1 and V0 subunits.

By UniProt entry, the sequences of proteins in these tests, tags left out.
UniProt P62814: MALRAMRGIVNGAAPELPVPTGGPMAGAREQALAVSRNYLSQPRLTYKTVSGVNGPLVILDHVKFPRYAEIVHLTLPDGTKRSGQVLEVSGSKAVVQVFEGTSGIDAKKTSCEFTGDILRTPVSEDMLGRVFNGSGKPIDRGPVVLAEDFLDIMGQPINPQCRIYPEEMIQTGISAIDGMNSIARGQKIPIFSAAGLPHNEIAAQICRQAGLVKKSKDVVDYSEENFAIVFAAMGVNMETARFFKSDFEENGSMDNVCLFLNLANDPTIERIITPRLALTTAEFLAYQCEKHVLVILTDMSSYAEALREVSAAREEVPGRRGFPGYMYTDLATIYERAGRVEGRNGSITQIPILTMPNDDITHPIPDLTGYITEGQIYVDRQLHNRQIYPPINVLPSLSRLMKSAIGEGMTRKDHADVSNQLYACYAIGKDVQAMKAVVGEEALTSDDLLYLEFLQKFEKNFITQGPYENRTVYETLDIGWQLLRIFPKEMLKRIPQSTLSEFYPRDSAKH
UniProt Q9Z1G4: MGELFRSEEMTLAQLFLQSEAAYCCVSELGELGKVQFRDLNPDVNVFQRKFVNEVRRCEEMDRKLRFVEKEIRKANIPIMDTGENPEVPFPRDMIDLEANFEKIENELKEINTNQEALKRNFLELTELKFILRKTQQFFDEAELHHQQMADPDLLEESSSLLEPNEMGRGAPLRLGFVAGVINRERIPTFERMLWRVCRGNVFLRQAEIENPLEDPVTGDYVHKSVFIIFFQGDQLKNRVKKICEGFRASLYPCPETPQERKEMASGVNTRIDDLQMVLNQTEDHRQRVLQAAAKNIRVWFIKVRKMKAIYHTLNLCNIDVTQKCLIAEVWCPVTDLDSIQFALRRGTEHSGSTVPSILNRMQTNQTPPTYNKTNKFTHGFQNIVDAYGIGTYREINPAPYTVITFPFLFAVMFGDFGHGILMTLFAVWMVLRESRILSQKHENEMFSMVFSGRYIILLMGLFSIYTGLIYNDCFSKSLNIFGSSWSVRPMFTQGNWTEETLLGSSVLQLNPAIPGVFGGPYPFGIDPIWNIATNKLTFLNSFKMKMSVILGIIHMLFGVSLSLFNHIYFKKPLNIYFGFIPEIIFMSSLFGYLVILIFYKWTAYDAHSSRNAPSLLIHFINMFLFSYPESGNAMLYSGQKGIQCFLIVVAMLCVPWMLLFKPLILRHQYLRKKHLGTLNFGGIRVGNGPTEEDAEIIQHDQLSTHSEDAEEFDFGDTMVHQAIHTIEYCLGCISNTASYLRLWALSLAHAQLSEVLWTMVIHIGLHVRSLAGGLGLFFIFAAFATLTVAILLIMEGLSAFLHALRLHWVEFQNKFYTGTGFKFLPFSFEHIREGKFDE
UniProt P50516: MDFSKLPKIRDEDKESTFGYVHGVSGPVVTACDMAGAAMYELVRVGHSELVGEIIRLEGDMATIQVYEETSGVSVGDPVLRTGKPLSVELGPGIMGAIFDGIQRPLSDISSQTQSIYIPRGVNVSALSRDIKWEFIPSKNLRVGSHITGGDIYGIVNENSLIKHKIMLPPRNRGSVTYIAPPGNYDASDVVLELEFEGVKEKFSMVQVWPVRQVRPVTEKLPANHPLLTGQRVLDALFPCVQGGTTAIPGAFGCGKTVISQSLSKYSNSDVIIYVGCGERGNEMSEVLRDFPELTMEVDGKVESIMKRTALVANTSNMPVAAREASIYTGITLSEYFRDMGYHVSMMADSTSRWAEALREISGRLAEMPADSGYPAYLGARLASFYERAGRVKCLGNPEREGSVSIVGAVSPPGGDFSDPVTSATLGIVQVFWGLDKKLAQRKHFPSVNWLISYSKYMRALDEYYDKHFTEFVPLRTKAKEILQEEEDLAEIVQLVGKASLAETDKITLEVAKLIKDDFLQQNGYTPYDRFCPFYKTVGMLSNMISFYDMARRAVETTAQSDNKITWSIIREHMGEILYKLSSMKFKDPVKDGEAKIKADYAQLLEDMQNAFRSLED
UniProt Q91YH6: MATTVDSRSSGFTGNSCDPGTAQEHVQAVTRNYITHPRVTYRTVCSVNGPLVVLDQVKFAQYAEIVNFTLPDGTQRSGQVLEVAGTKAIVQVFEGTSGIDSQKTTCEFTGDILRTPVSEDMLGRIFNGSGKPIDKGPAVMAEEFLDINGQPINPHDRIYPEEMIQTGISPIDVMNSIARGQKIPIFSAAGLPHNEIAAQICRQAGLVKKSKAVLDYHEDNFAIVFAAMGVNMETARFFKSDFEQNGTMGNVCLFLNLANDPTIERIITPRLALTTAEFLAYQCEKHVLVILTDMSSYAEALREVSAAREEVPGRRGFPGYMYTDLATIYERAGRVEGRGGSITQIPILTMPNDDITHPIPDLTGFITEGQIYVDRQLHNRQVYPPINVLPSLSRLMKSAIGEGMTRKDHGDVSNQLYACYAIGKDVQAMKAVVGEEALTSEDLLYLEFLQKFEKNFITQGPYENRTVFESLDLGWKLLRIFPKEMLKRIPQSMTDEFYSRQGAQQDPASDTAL

The target in experiment [2] is T1, nuclear receptor coactivator 7 (NCOA7) (mouse (endogenous in adult mouse brain and kidney)). The experiment in a line: co-IP; co-immunoprecipitation from mouse kidney in vivo (Supplementary Figure S6A, B); DEL model used; precipitating antibody not told in the text shown.
Experiment [3] has as its target V-ATPase V1 subunit ATP6V1B2 (mouse (endogenous in adult mouse whole brain)) (UniProt P62814). Nature of the experiment: co-IP; reciprocal IP with anti-ATP6V1B2 from the same adult mouse whole brain fractions; Western blot for NCOA7. In general terms: Immunoblotting shows a protein as a band on a membrane.

No constants are given. Whether binding was seen depends on the method and setting. Binding seen in cells or lysates may run through a third protein. Some entries that bind do so weakly or less than the wild type.

Turning to “V-ATPase V0 subunit ATP6V0a1 (from UniProt Q9Z1G4 1-839)”, the binding entry in experiment [1] is reported as “no binding”.

For the molecule “V-ATPase V1 subunit ATP6V1A(1) (from UniProt P50516 1-617)”, in experiment [1], the binding result is listed as “binds”.

As for “kidney-specific V-ATPase V1 subunit ATP6V1B1 (from UniProt Q91YH6 1-513)”, the binding result in experiment [2] is “binds”.

B1: nuclear receptor coactivator 7 (NCOA7) (protein, UniProt Q6DFV7 1-943)
chain: MDTKEEKKEQKERKQSYFARLKKKKQAKQNAEIVSAASSKSRSGKDDANSDILEQDKFNVTAEGDHSTDDKKKRKSNQLKEIRRTELKRYYSVDDNQNKTHDKKEKKMMVQKPQGTMEYTAGSQDTLNSVALKFNVTPNKLVELNKLFTHTIVPGQVLFVPDANISSSTIQLSSSTPGATVSPSSSDAEYDKLPDADLARKALKPIERVLSSTSEEDEPGVVKFLKMNCRYFTDGKGVVGGVMIVTPNNIMFDPHKSDPLVIENGCEEYGLICPMEEVVSIALYSDISHMKIKDALPSDLPRDLCPLYRPGEWEDLASEKDINPFSKFKSINKEKRQQNGERTLALDAKSVRSPEESTERTCTRIEPPDNSELWKLKNLQSSRGTTSESPSVTQLSMRAALEPTAKENCLLKGDEDFVDLEELSSQPESGINKGDATKECLSYDQKKDGPHTVMSAKKGHVQSAQEVMGPESDTELKGALDLETAEKQDEAPEVDKHSGSPENLGESTLNIHEDLDKIKLIEFYLNKNKEGSQLLENVQKSELSDRKSIEPGGIDITLSSSLPQAGDSPPEDNKEPGTLWVKGGETLPLKLDPSAEETVINNKEVLDSLGSSLDKMCHSAQMDNKSEIQLWLLKRIQVPIEDILPSKEEKSKTPPMFLCIKVGKPMRKSFASHTATMVQQYSKRRKQPEYWFAVPRERVDHLYTFFVQWSPDVYGKDAKEQGFVVVEKEELNMIDNFFSEPTTKSWEIITVEEAKRRKSTCSYYEEEEEEEEGLPILQPHSALLENMHIEQLARRLPARVQGYPWRLAYSTLEHGTSLKTLYRKSASLDSPVLLVIKDMDNQIFGAYATHPFKFSDHYYGTGETFLYTFSPNFKVFKWSGENSYFINGDISSLELGGGGGRFGLWLDADLYHGRSNSCSTFNNDILSKKEDFIVQDLEVWTFE
Consider B1, for which the binding result in experiment [3] is recorded as “binds”.

Source of the values: publication PMC8038996.
